PubChem BioAssay AID1508597 – Cure First, 2020
Assay: 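Survival screen with siRNA in ovarian cancer cells derived from patients, with or without rucaparib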 (primary screen). System: human ovarian carcinoma lines grown from tumours: OCI-P5x (papillary serous) and OCI-C5x (clear cell). Knock-down reagent: siRNA pool against human genes, 1.25 pmol siRNA per well. Timing: 72 h or 96 h, depending on the cell culture. Challenge: rucaparib 20 µM (about IC30) or vehicle, present until read-out. Measured: 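ATP luminescence measured at 72 or 96 h according to the culture, then normalised and expressed as percent viability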. Scale: viability, normalised: higher = more viable cells remaining. Active means: 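a well counts as a hit if its normalised viability is under 80 percent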. Calls: active = viability under 80%; inactive = viability 80% or more.
The whole screen tested about 2,100 reagents; below is a random part of them. 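Calls flag viability under 80% in either arm, not effects specific to rucaparib; the reference for percent is not stated.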 The record does not give: the 100% reference.

| Target gene | rucaparib or vehicle | cell line | technical replicate | viability, normalised (%) | call |
| --- | --- | --- | --- | --- | --- |
| MARK3 | Rucaparib | OCI-C5x (clear cell) | 1 | 49.8 | active |
| MARK3 | Rucaparib | OCI-C5x (clear cell) | 2 | 69 | active |
| MARK3 | Rucaparib | OCI-C5x (clear cell) | 3 | 51.1 | active |
| MARK3 | Rucaparib | OCI-P5x (serous) | 1 | 84.9 | inactive |
| MARK3 | Rucaparib | OCI-P5x (serous) | 2 | 87.2 | inactive |
| MARK3 | Rucaparib | OCI-P5x (serous) | 3 | 90.7 | inactive |
| MARK3 | Vehicle | OCI-C5x (clear cell) | 1 | 58.4 | active |
| MARK3 | Vehicle | OCI-C5x (clear cell) | 2 | 49.8 | active |
| MARK3 | Vehicle | OCI-C5x (clear cell) | 3 | 46.9 | active |
| MARK3 | Vehicle | OCI-P5x (serous) | 1 | 86.1 | inactive |
| MARK3 | Vehicle | OCI-P5x (serous) | 2 | 94.9 | inactive |
| MARK3 | Vehicle | OCI-P5x (serous) | 3 | 83.4 | inactive |

The list goes on; the last 3 above are carried over.
| Target gene | rucaparib or vehicle | cell line | technical replicate | viability, normalised (%) | call |
| --- | --- | --- | --- | --- | --- |
| MARK3 | Vehicle | OCI-P5x (serous) | 1 | 86.1 | inactive |
| MARK3 | Vehicle | OCI-P5x (serous) | 2 | 94.9 | inactive |
| MARK3 | Vehicle | OCI-P5x (serous) | 3 | 83.4 | inactive |
| FOXF2 | Rucaparib | OCI-C5x (clear cell) | 1 | 44.1 | active |
| FOXF2 | Rucaparib | OCI-C5x (clear cell) | 2 | 58.4 | active |
| FOXF2 | Rucaparib | OCI-C5x (clear cell) | 3 | 54.2 | active |
| FOXF2 | Rucaparib | OCI-P5x (serous) | 1 | 72.9 | active |
| FOXF2 | Rucaparib | OCI-P5x (serous) | 2 | 82.1 | inactive |
| FOXF2 | Rucaparib | OCI-P5x (serous) | 3 | 84.6 | inactive |
| FOXF2 | Vehicle | OCI-C5x (clear cell) | 1 | 64.1 | active |
| FOXF2 | Vehicle | OCI-C5x (clear cell) | 2 | 75.1 | active |
| FOXF2 | Vehicle | OCI-C5x (clear cell) | 3 | 62.8 | active |
| FOXF2 | Vehicle | OCI-P5x (serous) | 1 | 82.8 | inactive |
| FOXF2 | Vehicle | OCI-P5x (serous) | 2 | 96.1 | inactive |
| FOXF2 | Vehicle | OCI-P5x (serous) | 3 | 96 | inactive |
